# Percent effect of library compounds

From ChEMBL document CHEMBL3988442, “University of Dundee, Small-Polar-MMV Screening Library” (2021).

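Whole-cell growth test on Mycobacterium tuberculosis, read after 3 days in glucose-containing 7H9 medium; the read-out is not stated. Compounds at 500 µM. Higher reads as more growth inhibition (inferred: compounds with an IC50 in retests scored well above the rest). Of about 18,000 compounds tested this way, about 1,400 (7.9%) reached 50% or more in at least one test.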

Values are the deposited “Percent Effect”, in %. The record does not define 0% and 100%; most values in the screen are far below 50% and negative numbers occur (in some assays of this library far below -100). This is an unselected part of the compounds tested.

structure,Percent Effect
OCC(c1ccc(Br)cc1)N1CCNCC1 (stereo not drawn),31.28%
Cc1cc(C(=O)NCc2ccnc(N(C)C)c2)no1,12.57%
Cc1cnn(CCNCCCS(C)(=O)=O)c1,28.22%
Cn1ccsc1=NC(=O)c1ccc(OCC(N)=O)cc1,35.81%
CN(C)S(=O)(=O)CCCN1CCC1c1ccc(F)cc1 (stereo not drawn),11.61%
CCN(CCCN1CCCC1)C(=O)c1cc[nH]n1,8.867%
O=C1CC(CO)C2(CCOCC2)CN1 (stereo not drawn),6.256%
O=C(Nc1ncccc1F)C1CC=CC1,15.1%
CC(C)Oc1ccc(NC(=O)NCC(=O)N(C)C)cc1,-13.15%
Cc1ccc(F)c(NC(=O)CCSCC(N)=O)c1,-4.807%
CCOc1ncccc1C(=O)N1CCCN(CC)CC1,-2.805%
O=C(c1ccncc1F)N1CCOc2ncccc21,-12.67%
OCC1CCC2(CCCC2)CN1 (stereo not drawn),2.48%
CCc1nccn1CCC(=O)N1C[C@@H](N)C[C@H]1C(=O)O,-4.299%
CCCOc1nc(C)cc(COC)c1C(N)=O,-3.103%
C=C(C)CN1CCN(C(=O)COC)CC1,-2.854%
O=C(c1c[nH]c2ncccc12)N1CCCC1,-9.912%
OCc1cnn2c1CCCC2,2.75%
CCOC(=O)c1cnc(N2CCNCC2)s1,61.28%
c1nsnc1-c1nc(C2CCCO2)no1 (stereo not drawn),50.93%
CN1CCN(c2cccc(C#N)n2)CC1CCO (stereo not drawn),0.05879%
O=C(NC1CCc2ccc(F)cc21)c1c[nH]nn1 (stereo not drawn),53.79%
CN1CCC(C(=O)N2C[C@@H](CO)[C@H](N(C)C)C2)CC1,-6.056%
O=C(NC1CC1)c1cc(-c2cccs2)on1,41.35%
COCc1nn(CC(=O)N(C)C2CCCCC2)c(=O)o1,43.55%
CCS(=O)(=O)N(CCc1cccs1)CC(=O)NC,0.6333%
CC(C)c1noc(CN2CCSCC2)n1,13.52%
Cc1ccccc1-c1nnn(CC(O)CC(F)(F)F)n1 (stereo not drawn),78.77%
Cc1ccc(NC(C)C(=O)N2CCNC2=O)cc1F (stereo not drawn),47.3%
c1cc2c(cc1CNc1nnc(C3CC3)o1)OCCO2,70.27%
O=C(CN1CCCC(O)C1)NCCCc1ncc[nH]1 (stereo not drawn),0.7018%
Cc1cc(C(=O)CCC(=O)NC(C)CO)c(C)s1 (stereo not drawn),41.23%
CNC(=O)CC(N)c1ccccc1 (stereo not drawn),6.642%
CCSCCC(C)N (stereo not drawn),5.178%
CC(=O)Nc1nc(C(=O)NC(C)Cc2ccco2)cs1 (stereo not drawn),46.59%
NC1CN(c2ccncn2)C1,1.935%
Cc1cc(C(=O)NCCNc2cccnc2)cnc1C,12.37%
CCN(CC(=O)NC)C(=O)C(C)SC (stereo not drawn),-6.501%
COc1cc(F)ccc1C(C)=O,0.05514%
CC(C)(C)OC(=O)N1CCCN(CCO)CC1,7.622%
CNC1CCOCC1,3.967%
CC(CNC(=O)NCc1cc[nH]n1)N1CCCC1 (stereo not drawn),7.774%
O=C(COC(=O)c1ccccn1)Nc1ccccc1,65.34%
NC1CCCc2nc(N3CCC(CO)CC3)ncc21 (stereo not drawn),-208.5%
CCC(C)C(=O)NCc1cccnc1N1CCOCC1 (stereo not drawn),15.49%
Cc1cccc(CCC(=O)OC(C)C(N)=O)c1 (stereo not drawn),27.22%
Cc1nc(C(C)C)cc(N(C)CC(O)CO)n1 (stereo not drawn),4.304%
Cc1ncsc1C(=O)Nc1ccc(N(C)C)cn1,-144.8%
Cn1ccc(C(=O)NCc2csc(Br)c2)cc1=O,57.51%

The first 3 entries again:

structure	Percent Effect
OCC(c1ccc(Br)cc1)N1CCNCC1 (stereo not drawn)	31.28%
Cc1cc(C(=O)NCc2ccnc(N(C)C)c2)no1	12.57%
Cc1cnn(CCNCCCS(C)(=O)=O)c1	28.22%